From patent US11390646B2, “Structure-based peptide inhibitors of α-synuclein aggregation” (The Regents of the University of California, priority 2016, dated 2022)
“Also recorded” adds a separate entry of the source. For part of these data: Not every detail of the peptide structures is certain; ends, links or a residue may be inferred. Some results were stated once for a whole list of compounds, not compound by compound. Ends that are not written are not given here.

Key:
Format in all cases: cell-based, human
[1] = system: HEK293T cells expressing YFP-labeled A53T α-syn; assay: Cell culture seeding assay: recombinant α-syn fibrils co-transfected with inhibitors
Method: (§1) We tested the efficacy of the inhibitors to prevent seeding in the cell culture model (FIG. 3A). We transfected the α-syn fibrils along with the different inhibitors. […] S62 was effective at concentrations of 12.5 μM and 6.25 μM in both cell lines (FIG. 3E). S71 was effective at low concentrations of 1.25 μM.
(§2) HEK293T cells that stably express YFP labeled WT α-syn and A53T α-syn were a generous gift from Dr. Marc Diamond. Cells were grown in Dulbecco's modified Eagle's medium (Gibco) supplemented with 10% fetal bovine serum (HyClone), 1% penicillin/streptomycin (Gibco), and 1% glutamax (Gibco) in a humidified incubator in 37° C., 5% CO2.
(§3) 10,000 cells in 90 μL media were plated in 96 well black wall plate (Cat #3660) and allowed to adhere overnight. α-syn was transfected at a final monomer concentration of 125 nM. Lipofectamine 2000 was diluted in OptiMEM media (2.5+17.5 μL) and incubated at room temperature for 5 mins. Protein aggregates were diluted in OptiMEM media (1:20) and sonicated in a water bath sonicator for 3 mins at low pulse. Diluted lipofectamine and protein samples were then mixed 1:1 and incubated at room temperature for 20 mins and thereafter 10 μL was added to each well. All samples are added in triplicates and experiments were repeated a minimum of two times. For co-transfection of α-syn fibrils with inhibitors, the fibrils and inhibitors were diluted in OptiMEM and incubated for 3 hours followed by sonication.
(§4) Puncta formation and cell growth was measured using Celigo Imaging Cell Cytometer allowing for unbiased measurement. Wells were imaged using fluorescent GFP channel and confluence was measured using Celigo analysis software. Images of entire well were taken and particles counted by ImageJ by particle analysis. Same settings were used to analyze wells of one plate at all days. Total particles counted in each well were normalized against the confluence and reported as particles per well.

WT YFP-α-syn HEK cells = assay: PD filament seeded α-syn fibrils transfected along with inhibitors; conditions: two different PD filaments
Method: We tested the efficacy of the inhibitors in preventing seeding by PD fibrils in cell culture. α-syn aggregates formed in the presence of PD fibrils were transfected in WT HEK cells along with the different inhibitors (FIG. 7A).
Human frozen brain tissues were obtained from UCLA Brain Tumor Translational Resource (BTTR). Sarkosyl insoluble protein was extracted using previously described protocols. Briefly, frozen tissue was homogenized in ice cold PBS using a dounce homogenizer at 200 mg/mL. The homogenate was then diluted in buffer A (10 mM Tris 7.4, 800 mM NaCl, 1 mM EGTA, 10% Sucrose) to 50 mg/mL in total volume of 1 mL and centrifuged at 20,700 g for 20 min at 4° C. The supernatant was collected in an ultracentrifuge tube and pellet was resuspended in 0.5 mL buffer A followed by centrifugation at 20,700 g for 20 mins at 4° C. The supernatants pooled together. […]
as §4, with “Same settings were used to analyze wells of one plate at all days.” left out

[2] = system: HEK293T cells expressing YFP-labeled WT α-syn; assay: Cell culture seeding assay: α-syn aggregated in the presence of inhibitors, mixture transfected, puncta counted; conditions: 50 μM α-syn aggregated with 10, 5, 2, 1 fold excess (S71: equimolar and sub-stoichiometric), monitored up to 3 days
From the text: (§5) We tested the efficacy of the inhibitors in preventing aggregation in a cell culture model. For these assays, we utilized two HEK293T cells that stably express YFP-labeled full-length WT α-syn and A53T α-syn (Sanders D W, et al. (2014) Neuron 82(6):1271-1288). In this model, lipofectamine-mediated transfection of recombinant fibrils leads to aggregation of the endogenous YFP-labeled protein that are seen as fluorescent puncta. Additionally, these puncta increase in size and number over time. This proliferation of aggregates over time is indicative of a ‘seeding’ phenomenon whereby a small amount of amyloid fibrils induces aggregation of the endogenous protein. […] The mixture was transfected in cells and puncta formation was visualized and the number of puncta were counted as particles per well. […] The mixture was then transfected in cells and aggregation was monitored over time for up to 3 days by fluorescence imaging (FIG. 2A). […]
as §4, with “Same settings were used to analyze wells of one plate at all days.” left out

[3] = system: HEK293T cells expressing YFP-labeled A53T α-syn; assay: as above; conditions: 50 μM α-syn aggregated with 10, 5, 2, 1 fold excess (S71: equimolar and sub-stoichiometric), monitored up to 3 days
From the text: as §5
as §4, with “Same settings were used to analyze wells of one plate at all days.” left out

[4] = system: HEK293T cells expressing YFP-labeled WT α-syn; assay: Cell culture seeding assay: recombinant α-syn fibrils co-transfected with inhibitors; conditions: 125 nM recombinant α-syn fibrils
Method: as §1, §2, §3, §4

| Sequence | duration of reduction of seeding ([1]; single administration, co-transfection) | duration of prevention of puncta formation (WT YFP-α-syn HEK cells) | seeding competence of α-syn aggregated in presence of peptide (particles/puncta per well) [2] | seeding competence of α-syn aggregated in presence of peptide (particles/puncta per well) [3] | seeding capacity of α-syn fibrils co-transfected with peptide (particles per well normalized to buffer) [4] | seeding capacity of α-syn fibrils co-transfected with peptide (particles per well normalized to buffer) ([1]; 125 nM recombinant α-syn fibrils) |
| --- | --- | --- | --- | --- | --- | --- |
| GAVVWGVTAVKKKKK (C-terminal poly-lysine tag) [Inhibitor S37, W mutation at Thr72 and poly-lysine tag at the C-terminus] | up to 2 days | up to 2 days | – | – | – | – |
| GAVVTGVTAVA [NACore, GAVVTGVTAVA, reference compound] | – | – | does not affect seeding capacity; also recorded: did not cause a significant reduction in puncta formation | does not affect seeding capacity; also recorded: did not cause a significant reduction in puncta formation | does not affect seeding capacity; also recorded: did not affect the seeding potency | does not affect seeding capacity; also recorded: did not affect the seeding potency |
